Results are given in words; binding and its absence hold for the method and conditions named. Binding seen in cells or lysates may run through a third protein. Some entries that bind do so weakly or less than the wild type.

Chains of the proteins cited; added tags and fusions are not shown.
UniProt Q61290: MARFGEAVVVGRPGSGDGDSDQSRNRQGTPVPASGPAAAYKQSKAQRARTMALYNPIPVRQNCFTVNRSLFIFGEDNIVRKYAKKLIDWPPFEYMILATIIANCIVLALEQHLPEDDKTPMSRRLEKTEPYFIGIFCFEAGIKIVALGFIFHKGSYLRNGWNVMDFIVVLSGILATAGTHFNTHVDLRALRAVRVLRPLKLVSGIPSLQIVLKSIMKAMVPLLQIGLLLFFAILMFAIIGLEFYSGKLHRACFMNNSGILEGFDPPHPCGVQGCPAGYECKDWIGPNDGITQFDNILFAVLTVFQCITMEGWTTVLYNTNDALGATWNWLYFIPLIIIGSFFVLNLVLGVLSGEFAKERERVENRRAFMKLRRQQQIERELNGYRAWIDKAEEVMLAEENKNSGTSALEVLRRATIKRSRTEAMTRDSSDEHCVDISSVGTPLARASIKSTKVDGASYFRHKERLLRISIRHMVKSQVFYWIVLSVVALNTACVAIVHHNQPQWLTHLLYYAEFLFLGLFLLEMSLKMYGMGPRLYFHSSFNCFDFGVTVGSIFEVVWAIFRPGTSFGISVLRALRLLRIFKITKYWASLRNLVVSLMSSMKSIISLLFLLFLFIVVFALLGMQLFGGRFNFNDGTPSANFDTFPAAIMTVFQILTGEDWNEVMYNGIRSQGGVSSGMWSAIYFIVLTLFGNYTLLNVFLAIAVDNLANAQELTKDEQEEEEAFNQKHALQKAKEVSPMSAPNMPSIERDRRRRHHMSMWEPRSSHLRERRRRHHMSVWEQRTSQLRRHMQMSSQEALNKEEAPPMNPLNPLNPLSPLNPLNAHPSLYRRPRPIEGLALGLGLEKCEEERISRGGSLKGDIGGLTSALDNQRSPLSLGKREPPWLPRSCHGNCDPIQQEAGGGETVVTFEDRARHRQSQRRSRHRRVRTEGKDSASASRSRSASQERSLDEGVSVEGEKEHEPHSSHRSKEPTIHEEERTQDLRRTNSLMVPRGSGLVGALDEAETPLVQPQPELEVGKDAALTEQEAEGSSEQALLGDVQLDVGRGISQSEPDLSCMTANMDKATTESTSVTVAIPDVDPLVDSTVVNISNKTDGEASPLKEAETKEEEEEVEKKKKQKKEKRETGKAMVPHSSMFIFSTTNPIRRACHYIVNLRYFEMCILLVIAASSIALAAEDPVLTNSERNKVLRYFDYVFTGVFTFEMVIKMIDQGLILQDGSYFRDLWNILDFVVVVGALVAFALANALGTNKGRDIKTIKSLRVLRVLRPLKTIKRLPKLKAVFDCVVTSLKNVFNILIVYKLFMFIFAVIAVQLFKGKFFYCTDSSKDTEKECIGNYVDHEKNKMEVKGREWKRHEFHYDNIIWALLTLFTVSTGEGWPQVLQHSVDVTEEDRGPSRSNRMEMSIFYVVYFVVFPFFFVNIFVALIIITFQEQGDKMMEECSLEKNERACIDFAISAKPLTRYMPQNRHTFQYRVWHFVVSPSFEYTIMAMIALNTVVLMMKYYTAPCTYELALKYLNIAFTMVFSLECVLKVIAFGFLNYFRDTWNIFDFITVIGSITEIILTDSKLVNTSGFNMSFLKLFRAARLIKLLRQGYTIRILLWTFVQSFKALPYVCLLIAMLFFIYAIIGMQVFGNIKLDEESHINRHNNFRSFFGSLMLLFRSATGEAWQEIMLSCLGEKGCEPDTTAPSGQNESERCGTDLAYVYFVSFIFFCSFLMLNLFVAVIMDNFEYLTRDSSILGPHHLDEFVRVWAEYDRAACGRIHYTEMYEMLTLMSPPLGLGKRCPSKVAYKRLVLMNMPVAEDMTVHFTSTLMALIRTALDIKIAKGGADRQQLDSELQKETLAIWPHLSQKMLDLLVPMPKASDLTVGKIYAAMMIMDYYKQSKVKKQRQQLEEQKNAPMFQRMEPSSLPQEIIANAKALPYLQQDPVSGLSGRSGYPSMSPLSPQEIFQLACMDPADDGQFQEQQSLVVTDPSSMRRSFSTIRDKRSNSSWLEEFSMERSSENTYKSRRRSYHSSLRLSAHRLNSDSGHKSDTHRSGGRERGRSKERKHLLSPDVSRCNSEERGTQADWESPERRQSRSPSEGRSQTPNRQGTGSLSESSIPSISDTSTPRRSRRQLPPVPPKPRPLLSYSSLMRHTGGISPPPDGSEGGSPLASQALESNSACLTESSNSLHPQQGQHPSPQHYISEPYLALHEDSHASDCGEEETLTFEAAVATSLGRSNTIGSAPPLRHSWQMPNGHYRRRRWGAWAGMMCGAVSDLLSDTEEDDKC
UniProt Q08460: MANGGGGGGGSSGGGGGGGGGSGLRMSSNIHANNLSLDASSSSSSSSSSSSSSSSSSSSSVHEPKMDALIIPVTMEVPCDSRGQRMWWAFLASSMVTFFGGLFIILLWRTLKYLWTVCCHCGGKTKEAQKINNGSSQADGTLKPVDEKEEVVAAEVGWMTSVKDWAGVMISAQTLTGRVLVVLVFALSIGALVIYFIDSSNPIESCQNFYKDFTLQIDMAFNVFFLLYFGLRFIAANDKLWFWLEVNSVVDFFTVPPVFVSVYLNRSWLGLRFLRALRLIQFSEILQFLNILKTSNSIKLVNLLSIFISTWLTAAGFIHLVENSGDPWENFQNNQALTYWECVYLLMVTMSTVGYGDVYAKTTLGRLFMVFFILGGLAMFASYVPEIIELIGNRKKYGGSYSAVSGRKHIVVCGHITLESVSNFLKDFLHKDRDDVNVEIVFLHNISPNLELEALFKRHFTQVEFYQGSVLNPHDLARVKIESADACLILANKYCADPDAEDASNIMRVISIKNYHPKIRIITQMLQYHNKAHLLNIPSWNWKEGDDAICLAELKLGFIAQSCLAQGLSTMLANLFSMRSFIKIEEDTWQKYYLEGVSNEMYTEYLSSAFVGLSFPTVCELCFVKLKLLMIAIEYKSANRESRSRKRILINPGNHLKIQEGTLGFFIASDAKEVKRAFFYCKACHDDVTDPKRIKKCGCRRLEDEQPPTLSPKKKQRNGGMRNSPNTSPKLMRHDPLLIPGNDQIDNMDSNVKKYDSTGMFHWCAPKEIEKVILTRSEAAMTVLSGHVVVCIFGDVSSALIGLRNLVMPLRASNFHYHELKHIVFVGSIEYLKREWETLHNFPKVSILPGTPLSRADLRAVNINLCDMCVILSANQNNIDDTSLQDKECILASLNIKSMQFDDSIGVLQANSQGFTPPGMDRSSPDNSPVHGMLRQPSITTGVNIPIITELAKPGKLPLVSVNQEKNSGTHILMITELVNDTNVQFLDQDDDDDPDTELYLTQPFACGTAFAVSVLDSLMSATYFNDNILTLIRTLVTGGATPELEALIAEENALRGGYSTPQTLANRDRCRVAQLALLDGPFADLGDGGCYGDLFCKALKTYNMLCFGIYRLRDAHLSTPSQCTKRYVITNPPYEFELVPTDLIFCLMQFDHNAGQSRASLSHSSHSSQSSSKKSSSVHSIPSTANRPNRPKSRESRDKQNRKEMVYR

Here are results for one substance from publication PMC6393364.

This test deals with high-voltage activated calcium channel Cav2.3 (mouse (endogenous in hippocampus)) (UniProt Q61290). The test can be described thus: co-IP; native co-IP from 12-week-old WT C57BL/6 mouse hippocampus lysate (150 mM NaCl, 20 mM Tris-HCl, 1% CHAPS); anti-Cav2.3 on protein A beads, 4°C overnight, IgG as nonspecific control; blot for BK.

Regarding “big-conductance calcium-activated potassium channel (BK) alpha subunit (from UniProt Q08460 1-1209)”, the binding result was “binds”.
